Here are results for one substance from article doi:10.1101/2022.04.17.488518.

Chains of the proteins cited; added tags and fusions are not shown.
UniProt C0Z2L5: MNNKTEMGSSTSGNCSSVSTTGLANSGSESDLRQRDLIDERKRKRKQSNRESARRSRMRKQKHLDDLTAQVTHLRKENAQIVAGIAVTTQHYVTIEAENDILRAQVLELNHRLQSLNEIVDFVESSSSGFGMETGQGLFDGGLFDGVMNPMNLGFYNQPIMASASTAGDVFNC

Results are given in words; binding and its absence hold for the method and conditions named. In cells and extracts the contact can be indirect. Some binding calls cover weakened binding; strength is not graded here. Sequences can lack the tags named with a protein.

Assay [1] deals with T1, HaloTag-fused bZIP10 (Group C bZIP) (Arabidopsis thaliana) (UniProt O22763).
T1 sequence: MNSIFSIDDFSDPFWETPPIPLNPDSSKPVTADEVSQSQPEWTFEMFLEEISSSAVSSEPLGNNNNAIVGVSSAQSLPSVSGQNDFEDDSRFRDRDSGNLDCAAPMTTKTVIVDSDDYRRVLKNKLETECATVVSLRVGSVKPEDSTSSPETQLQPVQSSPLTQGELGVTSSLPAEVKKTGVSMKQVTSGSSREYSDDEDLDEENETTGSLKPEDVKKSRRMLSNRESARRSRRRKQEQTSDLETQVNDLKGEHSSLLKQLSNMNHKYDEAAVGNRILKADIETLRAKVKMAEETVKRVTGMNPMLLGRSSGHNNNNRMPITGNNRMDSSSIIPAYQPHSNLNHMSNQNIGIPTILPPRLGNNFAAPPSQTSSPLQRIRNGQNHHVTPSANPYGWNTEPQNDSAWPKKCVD
The assay is described as follows: pull-down.

Assay [2] addresses T2, HaloTag-fused bZIP63 (Group C bZIP) (Arabidopsis thaliana) (UniProt B9DGI8).
T2 sequence: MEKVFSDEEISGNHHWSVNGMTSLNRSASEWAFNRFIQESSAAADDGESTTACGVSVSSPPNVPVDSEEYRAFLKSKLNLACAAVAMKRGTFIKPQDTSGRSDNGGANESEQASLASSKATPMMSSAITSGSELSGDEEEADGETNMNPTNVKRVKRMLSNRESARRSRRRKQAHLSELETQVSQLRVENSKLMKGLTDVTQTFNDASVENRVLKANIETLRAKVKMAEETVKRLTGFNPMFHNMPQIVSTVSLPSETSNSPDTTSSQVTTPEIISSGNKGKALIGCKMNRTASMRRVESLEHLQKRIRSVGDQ
The assay is described as follows: pull-down.

As to “SBPTag-fused bZIP44 (Group S1 bZIP) (from UniProt C0Z2L5 1-173)”, the binding entry in assay [1] and in assay [2] was “binds” in each case.
